Results: the supplement of paper PMC8728848
The list shows a part of the results.

Columns and labels:
Test in all cases: glycan array binding signal (z-score within array); higher = stronger binding
Details in all cases: glycan notation: IUPAC condensed, linker removed
[1] = biological target: Fuc(a1-2)Gal(b1-4)GlcNAc(b1-3)Gal(b1-4)GlcNAc(b1-3)Gal(b1-4)GlcNAc
Method in brief: (§1)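 Arrays were curated from the Consortium for Functional Glycomics database, 3228 in total, and kept only where the protein sequence was available. Binding is expressed as a within-array Z-score. This score was averaged across arrays of the same protein sequence at different concentrations or buffers and across linkers, and negative values can be read as non-binding.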

[2] = biological target: Fuc(a1-2)Gal(b1-4)GlcNAc(b1-3)GalNAc
Method in brief: as §1

[3] = biological target: Fuc(a1-2)Gal(b1-4)GlcNAc(b1-3)[Fuc(a1-2)Gal(b1-4)GlcNAc(b1-6)]GalNAc
Method in brief: as §1

[4] = biological target: Fuc(a1-2)Gal(b1-4)GlcNAc(b1-3)[Fuc(a1-3)[Gal(b1-4)]GlcNAc(b1-6)]Gal(b1-4)Glc
Method in brief: as §1

[5] = biological target: Fuc(a1-2)Gal(b1-4)GlcNAc(b1-6)GalNAc
Method in brief: as §1

[6] = biological target: Fuc(a1-2)Gal(b1-4)GlcNAc6S
Method in brief: as §1

[7] = biological target: Fuc(a1-2)Gal(b1-4)[Fuc(a1-3)]GlcNAc
Method in brief: as §1

[8] = biological target: Fuc(a1-2)Gal(b1-4)[Fuc(a1-3)]GlcNAc(b1-2)Man(a1-3)[Fuc(a1-2)Gal(b1-4)[Fuc(a1-3)]GlcNAc(b1-2)Man(a1-6)]Man(b1-4)GlcNAc(b1-4)[Fuc(a1-6)]GlcNAc
Method in brief: as §1

[9] = biological target: Fuc(a1-2)Gal(b1-4)[Fuc(a1-3)]GlcNAc(b1-2)[Fuc(a1-2)Gal(b1-4)[Fuc(a1-3)]GlcNAc(b1-4)]Man(a1-3)[Fuc(a1-2)Gal(b1-4)[Fuc(a1-3)]GlcNAc(b1-2)Man(a1-6)]Man(b1-4)GlcNAc(b1-4)GlcNAc
Method in brief: as §1

[10] = biological target: Fuc(a1-2)Gal(b1-4)[Fuc(a1-3)]GlcNAc(b1-3)Gal(b1-4)[Fuc(a1-3)]GlcNAc
Method in brief: as §1

[11] = biological target: Fuc(a1-2)Gal(b1-4)[Fuc(a1-3)]GlcNAc(b1-3)Gal(b1-4)[Fuc(a1-3)]GlcNAc(b1-3)Gal(b1-4)[Fuc(a1-3)]GlcNAc
Method in brief: as §1

[12] = biological target: Fuc(a1-2)Gal(b1-4)[Fuc(a1-3)]GlcNAc(b1-3)GalNAc
Method in brief: as §1

[13] = biological target: Fuc(a1-2)Gal(b1-4)[Fuc(a1-3)]GlcNAc(b1-3)[Neu5Ac(a2-6)Gal(b1-4)GlcNAc(b1-6)]Gal(b1-4)Glc
Method in brief: as §1

[14] = biological target: Fuc(a1-2)Gal3S(b1-4)GlcNAc
Method in brief: as §1

[15] = biological target: Fuc(a1-2)Gal6S(b1-3)GlcNAc
Method in brief: as §1

[16] = biological target: Fuc(a1-2)Gal6S(b1-3)GlcNAc6S
Method in brief: as §1

Fuc(a1-2)Gal6S(b1-4)Glc = biological target: Fuc(a1-2)Gal6S(b1-4)Glc
Method in brief: as §1

[17] = biological target: Fuc(a1-2)Gal6S(b1-4)Glc6S
Method in brief: as §1

Fuc(a1-2)[Gal(a1-3)]Gal = biological target: Fuc(a1-2)[Gal(a1-3)]Gal
Method in brief: as §1

[18] = biological target: Fuc(a1-2)[Gal(a1-3)]Gal(b1-3)GalNAc
Method in brief: as §1

[19] = biological target: Fuc(a1-2)[Gal(a1-3)]Gal(b1-3)GalNAc(b1-3)Gal(a1-4)Gal(b1-4)Glc
Method in brief: as §1

[20] = biological target: Fuc(a1-2)[Gal(a1-3)]Gal(b1-3)GlcNAc
Method in brief: as §1

[21] = biological target: Fuc(a1-2)[Gal(a1-3)]Gal(b1-3)GlcNAc(b1-2)Man(a1-3)[Fuc(a1-2)[Gal(a1-3)]Gal(b1-3)GlcNAc(b1-2)Man(a1-6)]Man(b1-4)GlcNAc(b1-4)GlcNAc
Method in brief: as §1

[22] = biological target: Fuc(a1-2)[Gal(a1-3)]Gal(b1-3)GlcNAc(b1-2)Man(a1-3)[Fuc(a1-2)[Gal(a1-3)]Gal(b1-3)GlcNAc(b1-2)Man(a1-6)]Man(b1-4)GlcNAc(b1-4)[Fuc(a1-6)]GlcNAc
Method in brief: as §1

[23] = biological target: Fuc(a1-2)[Gal(a1-3)]Gal(b1-3)GlcNAc(b1-3)GalNAc
Method in brief: as §1

[24] = biological target: Fuc(a1-2)[Gal(a1-3)]Gal(b1-3)GlcNAc(b1-6)GalNAc
Method in brief: as §1

[25] = biological target: Fuc(a1-2)[Gal(a1-3)]Gal(b1-4)Glc
Method in brief: as §1

[26] = biological target: Fuc(a1-2)[Gal(a1-3)]Gal(b1-4)GlcNAc
Method in brief: as §1

[27] = biological target: Fuc(a1-2)[Gal(a1-3)]Gal(b1-4)GlcNAc(b1-2)Man
Method in brief: as §1

[28] = biological target: Fuc(a1-2)[Gal(a1-3)]Gal(b1-4)GlcNAc(b1-2)Man(a1-3)[Fuc(a1-2)[Gal(a1-3)]Gal(b1-4)GlcNAc(b1-2)Man(a1-6)]Man(b1-4)GlcNAc(b1-4)GlcNAc
Method in brief: as §1

[29] = biological target: Fuc(a1-2)[Gal(a1-3)]Gal(b1-4)GlcNAc(b1-2)Man(a1-3)[Fuc(a1-2)[Gal(a1-3)]Gal(b1-4)GlcNAc(b1-2)Man(a1-6)]Man(b1-4)GlcNAc(b1-4)[Fuc(a1-6)]GlcNAc
Method in brief: as §1

[30] = biological target: Fuc(a1-2)[Gal(a1-3)]Gal(b1-4)GlcNAc(b1-3)GalNAc
Method in brief: as §1

[31] = biological target: Fuc(a1-2)[Gal(a1-3)]Gal(b1-4)GlcNAc(b1-3)[Fuc(a1-2)[Gal(a1-3)]Gal(b1-4)GlcNAc(b1-6)]GalNAc
Method in brief: as §1

[32] = biological target: Fuc(a1-2)[Gal(a1-3)]Gal(b1-4)GlcNAc(b1-6)GalNAc
Method in brief: as §1

[33] = biological target: Fuc(a1-2)[Gal(a1-3)]Gal(b1-4)[Fuc(a1-3)]Glc
Method in brief: as §1

[34] = biological target: Fuc(a1-2)[Gal(a1-3)]Gal(b1-4)[Fuc(a1-3)]GlcNAc
Method in brief: as §1

[35] = biological target: Fuc(a1-2)[Gal(a1-3)]Gal(b1-4)[Fuc(a1-3)]GlcNAc(b1-3)GalNAc
Method in brief: as §1

[36] = biological target: Fuc(a1-2)[Gal(a1-4)]Gal(b1-4)GlcNAc
Method in brief: as §1

[37] = biological target: Fuc(a1-2)[GalNAc(a1-3)]Gal
Method in brief: as §1

[38] = biological target: Fuc(a1-2)[GalNAc(a1-3)]Gal(b1-3)GalNAc(a1-3)[Fuc(a1-2)]Gal(b1-4)GlcNAc
Method in brief: as §1

[39] = biological target: Fuc(a1-2)[GalNAc(a1-3)]Gal(b1-3)GalNAc(b1-3)Gal(a1-4)Gal(b1-4)Glc
Method in brief: as §1

[40] = biological target: Fuc(a1-2)[GalNAc(a1-3)]Gal(b1-3)GlcNAc
Method in brief: as §1

[41] = biological target: Fuc(a1-2)[GalNAc(a1-3)]Gal(b1-3)GlcNAc(b1-2)Man(a1-3)[Fuc(a1-2)[GalNAc(a1-3)]Gal(b1-3)GlcNAc(b1-2)Man(a1-6)]Man(b1-4)GlcNAc(b1-4)GlcNAc
Method in brief: as §1

[42] = biological target: Fuc(a1-2)[GalNAc(a1-3)]Gal(b1-3)GlcNAc(b1-2)Man(a1-3)[Fuc(a1-2)[GalNAc(a1-3)]Gal(b1-3)GlcNAc(b1-2)Man(a1-6)]Man(b1-4)GlcNAc(b1-4)[Fuc(a1-6)]GlcNAc
Method in brief: as §1

[43] = biological target: Fuc(a1-2)[GalNAc(a1-3)]Gal(b1-3)GlcNAc(b1-3)GalNAc
Method in brief: as §1

B1: YghJ (Escherichia coli), E3PJ90 (protein)
chain: MNKKFKYKKSLLAAILSATLLAGCDGGGSGSSSDTPPVDSGTGSLPEVKPDPTPNPEPTPEPTPDPEPTPEPIPDPEPTPEPEPEPVPTKTGYLTLGGSQRVTGATCNGESSDGFTFKPGEDVTCVAGNTTIATFNTQSEAARSLRAVEKVSFSLEDAQELAGSDDKKSNAVSLVTSSNSCPANTEQVCLTFSSVIESKRFDSLYKQIDLAPEEFKKLVNEEVENNAATDKAPSTHTSPVVPVTTPGTKPDLNASFVSANAEQFYQYQPTEIILSEGRLVDSQGYGVAGVNYYTNSGRGVTGENGEFSFSWGEAISFGIDTFELGSVRGNKSTIALTELGDEVRGANIDQLIHRYSTTGQNNTRVVPDDVRKVFAEYPNVINEIINLSLSNGATLGEGEQVVNLPNEFIEQFNTGQAKEIDTAICAKTDGCNEARWFSLTTRNVNDGQIQGVINKLWGVDTNYKSVSKFHVFHDSTNFYGSTGNARGQAVVNISNAAFPILMARNDKNYWLAFGEKRAWDKNELAYITEAPSIVRPENVTRETASFNLPFISLGQVGDGKLMVIGNPHYNSILRCPNGYSWNGGVNKDGQCTLNSDPDDMKNFMENVLRYLSNDRWLPDAKSSMTVGTNLETVYFKKHGQVLGNSAPFAFHKDFTGITVKPMTSYGNLNPDEVPLLILNGFEYVTQWGSDPYSIPLRADTSKPKLTQQDVTDLIAYMNKGGSVLIMENVMSNLKEESASGFVRLLDAAGLSMALNKSVVNNDPQGYPDRVRQRRSTPIWVYERYPAVDGKPPYTIDDTTKEVIWKYQQENKPDDKPKLEVASWQEEVEGKQVTQFAFIDEADHKTPESLAAAKQRILDAFPGLEVCKDSDYHYEVNCLEYRPGTDVPVTGGMYVPQYTQLDLSADTAKAMLQAADLGTNIQRLYQHELYFRTNGRQGERLNSVDLERLYQNMSVWLWNETKYRYEEGKEDELGFKTFTEFLNCYTNNAYVGTQCSAELKKSLIDNKMIYGEESSKAGMMNPSYPLNYMEKPLTRLMLGRSWWDLNIKVDVEKYPGVVNTNGETVTQNINLYSAPTKWFAGNMQSTGLWAPAQQEVSIESKSTVPVTVTVALADDLTGREKHEVSLNRPPRVTKTYDLKANDKVTFKVPYGGLIYIKGDSKEVQSADFTFTGVVKAPFYKDGKWQHDLNSPAPLGELESASFVYTTPKKNLNASNYTGGLEQFANDLDTFASSMNDFYGRDSEDGKHRMFTYKNLPGHKHRFANDVQISIGDAHSGYPVMNSSFSPNSTTLPTTPLNDWLIWHEVGHNAAETPLTVPGATEVANNVLALYMQDRYLGKMNRVADDITVAPEYLEESNGQAWARGGAGDRLLMYAQLKEWAEKNFDIKKWYPDGTPLPEFYSEREGMKGWNLFQLMHRKARGDEVSNDKFGGKNYCAESNGNAADTLMLCASWVAQTDLSEFFKKWNPGANAYQLPGASEMSFEGGVSQSAYNTLASLDLPKPEQGPETINQVTEHKMSAE
B1 was tested, and the “glycan array binding signal (z-score)” value [1] was -0.578, the “glycan array binding signal (z-score)” value [2] was -0.611 and the “glycan array binding signal (z-score)” value [3] was 1.44. The “glycan array binding signal (z-score)” value [4] was -0.132, the “glycan array binding signal (z-score)” value [5] was 0.563 and the “glycan array binding signal (z-score)” value [6] was 0.647. For the same binder, the “glycan array binding signal (z-score)” value [7] was -0.238, the “glycan array binding signal (z-score)” value [8] was 1.27 and the “glycan array binding signal (z-score)” value [9] was 1.57. The “glycan array binding signal (z-score)” value [10] was -0.708, the “glycan array binding signal (z-score)” value [11] was -1.34 and the “glycan array binding signal (z-score)” value [12] was -1.5. The “glycan array binding signal (z-score)” value [13] was 0.326, the “glycan array binding signal (z-score)” value [14] was 0.508 and the “glycan array binding signal (z-score)” value [15] was -1.54. The “glycan array binding signal (z-score)” value [16] was 3.49, the “glycan array binding signal (z-score)” value (Fuc(a1-2)Gal6S(b1-4)Glc) was 0.056 and the “glycan array binding signal (z-score)” value [17] was -0.778. The “glycan array binding signal (z-score)” value (Fuc(a1-2)[Gal(a1-3)]Gal) was -0.372, the “glycan array binding signal (z-score)” value [18] was -0.508 and the “glycan array binding signal (z-score)” value [19] was 1.55. The “glycan array binding signal (z-score)” value [20] was 0.682, the “glycan array binding signal (z-score)” value [21] was 0.287 and the “glycan array binding signal (z-score)” value [22] was -0.818. For the same binder, the “glycan array binding signal (z-score)” value [23] was 0.158, the “glycan array binding signal (z-score)” value [24] was -0.781 and the “glycan array binding signal (z-score)” value [25] was -1.23. For the same binder, the “glycan array binding signal (z-score)” value [26] was 1.95, the “glycan array binding signal (z-score)” value [27] was -1.3 and the “glycan array binding signal (z-score)” value [28] was 0.733. The “glycan array binding signal (z-score)” value [29] was -0.117, the “glycan array binding signal (z-score)” value [30] was -0.597 and the “glycan array binding signal (z-score)” value [31] was -0.682. For the same binder, the “glycan array binding signal (z-score)” value [32] was 0.424, the “glycan array binding signal (z-score)” value [33] was -0.249 and the “glycan array binding signal (z-score)” value [34] was 1.74. The “glycan array binding signal (z-score)” value [35] was 0.688, the “glycan array binding signal (z-score)” value [36] was 0.875 and the “glycan array binding signal (z-score)” value [37] was -0.322. The “glycan array binding signal (z-score)” value [38] was -0.92, the “glycan array binding signal (z-score)” value [39] was -0.408 and the “glycan array binding signal (z-score)” value [40] was -0.62. For the same binder, the “glycan array binding signal (z-score)” value [41] was 0.546, the “glycan array binding signal (z-score)” value [42] was 0.894 and the “glycan array binding signal (z-score)” value [43] was -0.694.
